The results in this text go back to PubChem BioAssay AID1347426 (Functional Genomics Laboratory (NCATS/FGL), 2020).

About 1,400 (4.5%) of roughly 31,000 sequences were called active.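 Rule for the calls: active = median seed-adjusted z-score above 1 or below -1; inactive = the rest.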 Some of the results follow.

The assay is described as follows: Novel Modifiers of Survival Motor Neuron (SMN) Protein: Gene Identification via Genome-wide siRNA Screen.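 Note: luminescence tracks full-length SMN protein made from the SMN2 reporter.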 Conditions: HEK293T SMN2-luciferase reporter, siRNA knockdown, 72 h; actives lie on both sides. The method in brief:
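HEK293T cells stably expressing an SMN2 splicing/cDNA-luciferase reporter were reverse-transfected with a druggable-genome siRNA library and read by luminescence at 72 hours; hits defined by MAD score above 1.0 or below -1.0.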
(In general: In a reporter assay the amount or activity of a reporter protein is the signal.)
As to CAUUCGGUAUUUUAUUCUATT against SNRPD1, the median seed-adjusted z-score is active: -2.97.
In the case of GCAUCGGAUUAAACAGCUUTT against PRICKLE1, the median seed-adjusted z-score was inactive: -0.486.
Turning to CUAUCAAAGCUUCCACUUUTT against NMUR2, the median seed-adjusted z-score was inactive: 0.529.
In the case of GGGUCAUCCGAGAAAAGAATT against ADAMTS17, the median seed-adjusted z-score was inactive: 0.257.
As for GCAUGAUAGGUGGGAUAAATT against SGK269, the figure is inactive: -0.171; as for GCAUCUGCGAUGUGAGGAATT against RYBP, inactive: 0.831; as for UCUUCCCUCCGACCACUUATT against CA13, inactive: -0.212.
GCAGUGCGUUCAGUGCAAATT against FHL2: the median seed-adjusted z-score was inactive: 0.475.
As to CAAGGGUCUUUCAGAAGUUTT against FKBP9L, the median seed-adjusted z-score is inactive: 0.666.
The same measure for GAAUGCGAUUCACACCUUUTT against CAT: inactive: 0.
The same measure for GACUGGACCCGGACAUUAATT against ADAMTS15: inactive: 0.765.
The same measure for CAAUUAAGUUGGAUCCUUUTT against WARS2: inactive: 0.21.
Take GGACGUACUUAUAAUCCUATT against MAK: the median seed-adjusted z-score was inactive: 0.22.
Turning to ACGUGUCCUGGAUCAGGAATT against GZMM, the median seed-adjusted z-score is inactive: -0.17.
As for GCAUCUACUGCAAGGAAGATT against LHX2, the figure is inactive: 0.464.
Take GCUUGAACCAGAUCCGGAATT against BMP2K: the median seed-adjusted z-score is inactive: -0.51.
The same measure for GGAGGUUCAGUUCCCGUAATT against OVCH1: inactive: 0.0211; for CAGGCAAACCGCUACAUCATT against EN1: inactive: 0.761.
Consider GGAUUCCAAUCUUAGCUUUTT against RLN1, for which the median seed-adjusted z-score is inactive: 0.0637.
In the case of AGCUUUACAUGAACACGCATT against KCNN4, the median seed-adjusted z-score is inactive: 0.00864.
Take GGAAGACCUUUACUCUUUATT against ZNF540: the median seed-adjusted z-score was inactive: -0.439.
CGGUCAUGCUGAUCACCUUTT against GPR119: the median seed-adjusted z-score is inactive: -0.382.
The same measure for GGAUCAUCUCAGAAUAGAATT against CENPC1: inactive: 0; for CCAGCUUCUUAAUAGACAATT against SERPINA7: inactive: 0.0925; for GCUCAACACUCAUCAAACATT against ZNF774: inactive: -0.0834.
The same measure for CGUUAUUGUUAGCAACACUTT against ZNF280A: inactive: -0.207; for GAACGUGCAUUAUAUCCCATT against MSL3: inactive: 0.423; for AGAUGGACGAGGUCCUGUATT against TXNL4A: inactive: -0.42.
The same measure for GAAUGGAAGAUUUCACCUUTT against SNAPC3: active: -1.72; for CCAUCGCACUGUACAGCUATT against BEST2: inactive: 0.415; for GCUUUAACUUCUCUGCCUATT against GLRA1: inactive: 0.
Turning to GAAAAAGGGUCACCAGAAATT against TSG101, the median seed-adjusted z-score was active: 1.48.
The same measure for CAAUCUGAAUCUGCCCAGATT against HLA-DQB1: inactive: 0.454.
As for CUCUCAUAAGGAUCCGAGATT against FREM2, the figure is inactive: 0.143; as for CUAUUUCCCUGCCUUCGAATT against GSTA3, inactive: 0.334; as for GAACAAGGUUGAUUUUCGATT against ABCC11, inactive: 0.322.
Consider CCCAGUAACUUGUCACCCATT against BSN, for which the median seed-adjusted z-score was inactive: 0.116.
The same measure for UGAUCUUUUUAUACACAAUTT against PYCARD: inactive: 0.117; for GCUAUUGAGUUUGCCCAAATT against ADHFE1: inactive: 0.418; for GGGAGUGAGUUUUCCGGGATT against PAX5: inactive: 0.285.
As for CCACGGCUGCAACAUCUUUTT against PDE2A, the figure is inactive: -0.2.
The same measure for UCAGAAACCUGGGACAUAATT against SLC25A29: inactive: 0.642; for GGUCUGGAGAAGGUGCAUATT against ANGPTL4: active: 1.37; for CAUUGUCUGUAUCUAUAUATT against MFSD2: inactive: -0.325.
For GAUCAGAAUUAGGUAUAGATT against ZHX1, the median seed-adjusted z-score is inactive: -0.566.
For ACCUUUUCCUUGAGACUCATT against YBX2, the median seed-adjusted z-score was inactive: 0.362.
The same measure for GGCUUCCAGUGUAUCGACUTT against TNFRSF18: inactive: 0.154; for GCUGGAGUCUAUUCCUGGATT against TYMP: inactive: -0.249.
Consider CCAACAUAGUGGACCGGAUTT against MYF5, for which the median seed-adjusted z-score was inactive: -0.786.
The same measure for AGAGUGUGCUUAUUGCCUATT against TSHB: inactive: -0.247.
The same measure for AGACCCUCAUUGACCAGUATT against ACOT8: inactive: 0.0643.
As for UCUCAGCUCCUAAAGCACATT against CST6, the median seed-adjusted z-score was inactive: -0.237.
The same measure for UGUCUGUACUCAUUGCAAATT against LPXN: inactive: -0.065; for CCUUACUAAUCAUAGGAAATT against ZNF254: inactive: 0.088.
The same measure for GGCCUUUUCCGCUACAAGATT against DUSP2: inactive: 0.576; for CAGCAAUGCCUGUGAGAAATT against PDK2: inactive: -0.481; for GAUUCUUUAGAGUCACUUATT against RFK: inactive: -0.00532.
GACCUAACCACUAUAGUUATT against IL7R: the median seed-adjusted z-score was inactive: 0.
In the case of AGACCAUUGAGACCCGGAATT against PRPH, the median seed-adjusted z-score was inactive: 0.
As for GGAUAAUCGACACUCUGGATT against MATN3, the figure is inactive: 0.0972.
In the case of AUGACGCACUACUCAAGAATT against GH1, the median seed-adjusted z-score was inactive: -0.394.
Take GGACGGAAAACAGUCUUAATT against OAS2: the median seed-adjusted z-score was inactive: 0.0758.
As to CGGGAUUCAGACUAACAUATT against SLC44A5, the median seed-adjusted z-score is inactive: 0.179.
As for GGAUUUGUUCUGAUCCGUUTT against NSD1, the figure is inactive: -0.372.
As for CAUCAACGAAGGAAAUAUATT against CD27, the figure is inactive: 0.5; as for CAAUGGACAUAAACGUGAUTT against BMPER, inactive: -0.684; as for CCAUGUUAUGAUUCGCUGUTT against PTPN11, inactive: 0.186.
Turning to CACCCUUACCUCAACCAAATT against tAKR, the median seed-adjusted z-score is inactive: -0.356.
As for CCACCUACUGAAUCUCGAATT against BCL6B, the median seed-adjusted z-score was inactive: 0.
